# Experimental data as given in US9394354B2, “Haptens of paliperidone” (JANSSEN PHARMACEUTICA NV, priority 2012, dated 2016).
# Values joined by “and” are separate entries in the source; they are usually repeats but may differ in a detail not shown here. Equal entries are not always repeated. For at least one compound, name, drawing or mass did not settle the structure.
# Assay: ELISA reactivity of hybridoma supernatants, Table 1
# Assay type: binding
# Settings: Ag = Bt-Compound #1, duplicate rows
smiles,measurement,setting,value
"Cc1nc2n(c(=O)c1CCN1CCC(c3noc4cc(F)ccc34)CC1)CCCC2OC(=O)CCC(=O)O (stereo not shown) [Example 1, 4-((3-(2-(4-(6-fluorobenzo[d]isoxazol-3-yl)piperidin-1-yl)ethyl)-2-methyl-4-oxo-6,7,8,9-tetrahydro-4H-pyrido[1,2-a]pyrimidin-9-yl)oxy)-4-oxobutanoic acid]",ELISA reactivity signal,Dilution 400,3.2562 and 3.1217
same,ELISA reactivity signal,Dilution 1200,1.3591 and 1.2607
same,ELISA reactivity signal,Dilution 3600,0.3745 and 0.3281
same,ELISA reactivity signal,Dilution 10800,0.0918 and 0.0879
